Drawing on PubChem BioAssay AID1347426 (Functional Genomics Laboratory (NCATS/FGL), 2020), this text covers median seed-adjusted z-score for 108 sequences.

Among all 31,000 sequences or so, about 1,400 (4.5%) were called active.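 Rule for the calls: active = median seed-adjusted z-score above 1 or below -1; inactive = the rest.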 Some of the results follow.

This assay is described as follows: Novel Modifiers of Survival Motor Neuron (SMN) Protein: Gene Identification via Genome-wide siRNA Screen.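 Note: luminescence tracks full-length SMN protein made from the SMN2 reporter.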 As to conditions: HEK293T SMN2-luciferase reporter, siRNA knockdown, 72 h; actives lie on both sides. The essentials: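 Luciferase signal, proportional to full-length SMN made from an SMN2 cDNA reporter in stable HEK293T cells, was read 72 h after siRNA reverse transfection. Values were expressed as MAD scores after non-targeting-control normalization and log10 conversion; seed analysis flagged off-targets.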
(In general: Reporter assays use an easily measured gene product as a stand-in for the process of interest.)
As to GGAUCAUGCUGAGAUGCAATT against RASAL2, the median seed-adjusted z-score was inactive: 0. The value for CAGAGUGGUUUGUUACAGATT against TXNRD3 was inactive: 0.69; that for GCAGACCUAUCACAAGUUUTT against GLUD1 was inactive: 0.156; that for GUAGUUUCUUUAGAGAAUATT against ATP7A was inactive: 0. In the case of CAUCGAUAUUAGCAAAGGATT against ACE2, the median seed-adjusted z-score is inactive: -0.164.

As for GGAAUAAAUUGGUCUGAAATT against APOL5, the median seed-adjusted z-score is inactive: -0.209. On to GCAUCAGUCAGUUGCAAAATT against CYP7B1, for which the median seed-adjusted z-score is inactive: 0.598. The value for CGGCAAAGAGUGGUCGGAATT against HOXA10 was inactive: -0.112; that for CCAGCACGGGAAUUCUAGATT against SGSH was inactive: 0.383. The value for CACUCCAAGUAGCACAUUUTT against CES2 was inactive: -0.47; that for GCAAAGACCCAAACCUACATT against SORBS2 was inactive: 0.0391; that for GGCUUCUUCUAUUCAAUUUTT against BCL6B was inactive: 0. With GGACCUUAUUUAUCAGCUUTT against NCOA4 the figure was inactive: -0.0638. With AAAUGGUAAUUGUUGCUAATT against THBD, the median seed-adjusted z-score is inactive: -0.16. As to CAUGCACACGUGAUCCAGATT against ZDHHC11, the median seed-adjusted z-score was inactive: -0.098. With AGAAUUCCAUCAACCUGAUTT against ADAMTS8 the figure was inactive: 0.115; with GUCUACUACUGGUCGGAGATT against GABRD, inactive: 0.428; with GUGAUACAGUGAUAAGUCATT against PTGR2, inactive: 0.14. Consider CCUCGAUAUUUUAACCUUUTT against EID2, for which the median seed-adjusted z-score is active: -1.04. Regarding CACUGUCCCAAUUCUAAUUTT against GDA, the median seed-adjusted z-score is inactive: -0.406. With GGAUUUUCCGAAUUCUAAATT against KCNS3 the figure was inactive: 0.103; with GCUUGCUAAAGGAACGGAATT against NEK2, inactive: -0.276. For GGACCAUGCUUGCUUCGUUTT against LARP6, the median seed-adjusted z-score is inactive: 0.0335. Turning to GGAGUUUGAGGAGCUCAUUTT against SDF4, the median seed-adjusted z-score was inactive: -0.422. In the case of GCGAGACCAAGUACCGUAATT against NRAP, the median seed-adjusted z-score is inactive: -0.205. The value for GCCUUAAAGAGUCUCGACATT against SRrp35 was inactive: -0.0574. The value for GCUAUUUAAGAGUUUCAGATT against RCAN2 was inactive: -0.185; that for CAUUCCGUCUUGGUGAUUATT against RANBP6 was inactive: -0.696; that for GCUGCUGCCUAUGCUGCUATT against SDSL was inactive: 0. The value for GAACUUAAUAGUACCCUUUTT against NR0B1 was inactive: -0.526; that for GCAUUCUAUUAGACUAUGATT against FSD2 was inactive: 0.359. As for CCUCAAUUGUUGCUUAUCUTT against ZDHHC17, the median seed-adjusted z-score was inactive: 0.526. The value for GCCUUCUUCUUAUGCAAGATT against ACTL6B was inactive: 0.0703; that for CCACGUCUCUGGAAUCAUUTT against POLH was inactive: -0.446; that for CCAGGUUUAUGUAGAAGUUTT against NMI was inactive: 0.982. The value for GCCUUACCCUGGACUAUGATT against LRP4 was inactive: -0.00798; that for AGAUUACGUUGAAGAACGATT against GNGT1 was inactive: -0.0382; that for GACGGAAAGACUUACGUUATT against EIF2AK2 was inactive: 0.419. With CUCUAGACUGGGAAACUAATT against ZNF2, the median seed-adjusted z-score is inactive: -0.119. Turning to GGAGUACCCUGAGGCUAUATT against RELA, the median seed-adjusted z-score is inactive: -0.646. The value for CCAGUUGCAUAAUUAUGGATT against HOXA5 was inactive: 0; that for GGAAGCUCAUGUACCUGCATT against OBP2B was inactive: -0.642.

For CUUUGAUACUGAUUCUCUATT against HTR1E, the median seed-adjusted z-score was inactive: 0.00535. Consider CUAUGGAAGUAUUUCCGAATT against DGAT2L6, for which the median seed-adjusted z-score is inactive: -0.528. Regarding AGCACGAGCUAGUCCCUGATT against POLR2E, the median seed-adjusted z-score was active: -1.25.

GGAGGUACUUUGGAUGACATT against BBX: the median seed-adjusted z-score is inactive: -0.0824. For the sequence CCACCUAGAUGAUAAUGAATT against ACTR5, the median seed-adjusted z-score is inactive: -0.376.

On to GACUGGAUCCAAAAGAACATT against CHST3, for which the median seed-adjusted z-score was inactive: 0.319.

For the sequence ACUGGACAGUGGUAUCAGATT against UBASH3A, the median seed-adjusted z-score was active: -1.1.

As for GGCUAAGGCUAUGGACAAATT against CYP4B1, the median seed-adjusted z-score was inactive: -0.663.

Take GAGGAUCACUUGUCCAAAUTT against IL1RAP: the median seed-adjusted z-score is inactive: -0.23. In the case of GGAUGACGUGAUACUCAAUTT against TTLL4, the median seed-adjusted z-score was inactive: -0.256. Regarding GUGUGUUCACAAAAUGAAATT against MAF, the median seed-adjusted z-score is inactive: -0.418.

For the sequence GCACGAGAGCAGAAGGAAATT against RCAN3, the median seed-adjusted z-score is inactive: 0.544.

In the case of GAGUCACAGUCGUUAUUCUTT against CNOT4, the median seed-adjusted z-score is inactive: -0.116. Consider GAGAAUAACUAAACAUUGUTT against MBNL2, for which the median seed-adjusted z-score was inactive: -0.675. With AAACAGACAGAGAUAAGUATT against UBE2D3, the median seed-adjusted z-score was active: 1.62. With GGUAUAUUUCCAUACUGAUTT against NFS1 the figure was inactive: 0.141; with GCAGUACUCUGCUACCUGATT against IL22RA1, active: -1.14. As for CACGGAAGGUUGUGAUGAATT against TLR5, the median seed-adjusted z-score was inactive: 0.

As for GGAUCAAGCUGAUGAACGATT against ABCC1, the median seed-adjusted z-score is inactive: 0. As for GGACGGAAGAUUUUCGUAUTT against SR140, the median seed-adjusted z-score was active: 1.16. With GGAACUCCCUCGAAAGGCUTT against GALNTL1 the figure was inactive: -0.234; with CGGACACGGCUAUAGAGGATT against NUBP1, inactive: -0.0975; with CAUGGAAGCUGACCACAUATT against PFAS, inactive: 0.0344. In the case of CGAGUAUGAUCCUACCAGATT against ESR1, the median seed-adjusted z-score was inactive: -0.408.

As for GAUAUGUAUUCAUACUAAUTT against SNX10, the median seed-adjusted z-score is inactive: 0.391. The value for CAGAAGGAAUACUAACAGATT against DIS3L2 was inactive: -0.265; that for CCAAGGACCAGGAGAUUCATT against HOMER3 was inactive: 0.148; that for GAACGACUGAGACGGCUAATT against SNAPIN was inactive: -0.132.

Regarding UCACCACACUUAAGGAGAATT against BIK, the median seed-adjusted z-score is inactive: 0.0492. The value for GGAGGGCUACUAUGAGUUUTT against CAMK1G was inactive: -0.358; that for CCUUCAAGGUCAACGUGUATT against KCNH3 was inactive: -0.509. With CGCCCACCUUUAUCCUCUATT against TNK1 the figure was inactive: -0.727; with GCGCAUCACUGACUGCUAUTT against CD248, inactive: -0.0191.

For GAACAGAUCCUAUGAGCGATT against PGCP, the median seed-adjusted z-score was inactive: 0.145.

As for CACAGAUUCGAGAAAUUCATT against SF3B1, the median seed-adjusted z-score is active: -3.65. With GCAUUGAUCCUCAGAGUAATT against PTPRU the figure was inactive: 0; with GGAUUAAACAGAUCAGAGATT against PDSS2, inactive: 0.111. As for CCCGUAUCAUGAUCCACCATT against CLPP, the median seed-adjusted z-score was inactive: -0.118.

With GGAAGUGUUUGUAAUCCCATT against ALPP, the median seed-adjusted z-score was inactive: 0. Regarding AGCAACUUCUCUACCCUGATT against EPHX1, the median seed-adjusted z-score is inactive: 0. The value for GGUCACAGGUUUUAUGGGATT against CHST13 was inactive: -0.447; that for ACGUGAUCCAAAUAUCCAATT against LEP was inactive: -0.143. The value for GAUCAUAACUGGAAUAAGATT against HIATL1 was inactive: 0.327. The value for GGGUAAGACUAAAUCUGUATT against CRH was inactive: 0.64. Turning to GCCUUUACAAGGUCCACAATT against ZNF595, the median seed-adjusted z-score was inactive: 0.102. With GCUAUUCACCGUCAGCAUATT against MLF2 the figure was inactive: -0.312; with GACCUGAUGUGGACCCAGATT against MIOX, inactive: 0.14; with GAAAGUCUGUGAGAAGCUATT against KCTD8, inactive: 0.0212.

Take CAAUCGGUACAGCUCCAAATT against CLCNKA: the median seed-adjusted z-score was inactive: -0.398. The value for GGCUGUACACUACAACGGUTT against EPB42 was inactive: -0.294; that for GAACAACCUGGAGAAAUAUTT against ENDOG was inactive: -0.336.

On to GCCUUAAGGAUGAAGAUAATT against FOXR2, for which the median seed-adjusted z-score was inactive: 0.593. As for GCAAAACGACGAUCAUUAATT against ARL6, the median seed-adjusted z-score was inactive: 0.442. As for GCUGAGGUCUAAGGACAUATT against ARHGAP30, the median seed-adjusted z-score is inactive: 0.0946. The value for AGAUCGUUUCUACCCUCUUTT against ALG3 was inactive: -0.446; that for GGAUCCCAGUGAUAUCUCUTT against DHDDS was inactive: 0.0122; that for GCAACUCAAAGGUGAUAAATT against CCNK was inactive: -0.717. With AAACCAUCCGGAUCAUCUATT against DTX4 the figure was inactive: 0.409; with CCUCCGAAGUGAAAAAGAUTT against FBL, inactive: -0.0592; with GGAAUGGUUUGAACAACGATT against ZEB2, inactive: 0.854. With CCACCAACCUCACAGAAGATT against MYH9 the figure was inactive: -0.517; with GUACAAACCUCAUAAGGCATT against ZNF322B, inactive: 0.0433; with GGAAAGCUUAUGUAGUAUATT against KCNH7, inactive: 0.0639. For the sequence CCAACGACUUGAACUCCAUTT against ASCL1, the median seed-adjusted z-score was inactive: 0.132. As for CGGAGAGGUCAGUAACUAATT against TPM1, the median seed-adjusted z-score is inactive: 0.659. The value for UACAUAUGCUGGACAGAAATT against SSU72 was active: -1.64.
